Experimental data as given in PubChem BioAssay AID2517 (National Center for Advancing Translational Sciences (NCATS), 2010).
Where “and” joins values, the source holds several entries; their conditions need not be identical. Equal entries are not always repeated. The whole screen tested about 350,000 compounds, of which about 1,200 (0.34%) were called active. The shares of active, inactive and inconclusive entries below differ from those in the screen. The call rests on the fitted dose curve; in most records, active means well fitted inhibition curve with a large enough effect; inconclusive means small, poorly fitted or top-dose-only effect; inactive means no such curve, though single readings can be large or run the other way. Potencies of inconclusive entries are doubtful fits and often do not repeat.

Protein sequences, listed by entry. Tags and fused reporters are not part of them.
UniProt P27695, whole entry, looked up: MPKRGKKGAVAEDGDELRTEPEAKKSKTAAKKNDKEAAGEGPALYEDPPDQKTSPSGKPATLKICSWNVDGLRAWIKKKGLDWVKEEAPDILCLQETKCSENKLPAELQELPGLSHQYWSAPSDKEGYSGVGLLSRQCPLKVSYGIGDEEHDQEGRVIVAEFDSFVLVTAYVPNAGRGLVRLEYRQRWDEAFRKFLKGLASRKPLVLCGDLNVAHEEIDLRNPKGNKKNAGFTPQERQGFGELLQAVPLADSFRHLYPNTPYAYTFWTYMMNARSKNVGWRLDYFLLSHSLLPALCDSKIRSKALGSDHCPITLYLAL

The molecules below were run against DNA repair nuclease/redox regulator APEX1 (Homo sapiens) (UniProt P27695) (assay: qHTS Assay for Inhibitors of the Human Apurinic/apyrimidinic Endonuclease 1 (APE1)). Conditions: recombinant APE1, TAMRA/BHQ-2 abasic DNA cleavage fluorescence; activity change, negative = inhibition: at 65.8 µM (top of the series).
Procedure, shortened: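 Readout is kinetic fluorescence (ex 525, em 598 nm) from cleavage of 50 nM TAMRA/BHQ-2 THF abasic duplex by 0.75 nM APE1, compound added 15 min beforehand at RT.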
Further: nearly all actives have a fitted effect of over 55% in size.
Potency means the concentration at half of the fitted maximal effect.
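Wherever activity change, negative = inhibition is given: plate controls were vehicle for no effect and reference inhibitor for full effect.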

SMILES | Potency | activity change, negative = inhibition
CCN(CC)c1ccc(/C=N/NC(=S)NCc2ccccc2)c(O)c1 | inconclusive: 39.8 µM [inhibitor, single point] | –
Cn1c(=O)c(C(=O)COC(=O)c2cc(-c3ccco3)nc3ccccc23)c(N)n(Cc2ccccc2)c1=O | inconclusive: 22.4 µM [inhibitor, partial curve] and inconclusive: 20 µM [inhibitor, single point] | –
COCCNC(=O)[C@H]1C[C@@H]1[C@H](NP(=O)(c1ccccc1)c1ccccc1)c1ccccc1 | inconclusive: 4.47 µM [inhibitor, partial curve] | –
C[C@@H]1O[C@@H](Oc2c(-c3cc(O)c(O)c(O)c3)oc3cc(O)cc(O)c3c2=O)[C@H](O)[C@H](O)[C@H]1O | inconclusive: 14.1 µM [inhibitor, partial curve] and inconclusive: 10 µM [inhibitor, partial curve] | –
CC(=O)Nc1ccc(N2C(=O)CC(c3ccccc3)CC2=O)cc1 | inconclusive: 44.7 µM [inhibitor, single point] | –
O=C(O)CCCN1C(=O)/C(=C/C=C/c2ccco2)SC1=S | inconclusive: 35.5 µM [inhibitor, partial curve] | –
COC(=O)c1sccc1NC(=O)CC1C(=O)NCCN1C(=O)c1ccc(C)c(C)c1 (stereo not drawn) | inconclusive: 10 µM [inhibitor, single point] | –
COc1cc2c(cc1OC)-c1cc(NCc3ccccn3)nc(=O)n1CC2 | inactive | –
CNC(=O)Cn1nc(-c2ccc(C)c(S(=O)(=O)N(C)C)c2)c2ccccc2c1=O | inconclusive: 5.01 µM [inhibitor, full curve] | –
N#Cc1cccc(-c2noc(-c3ccccc3F)n2)c1 | inactive | –
CC(=O)N1[C@H](Cc2ccccc2)C=C[C@]1(C)C(=O)NCc1ccc(C)o1 | inconclusive: 7.94 µM [inhibitor, single point] | –
O=C(O)c1cccc(Cn2c(Cl)c(/C=N/Nc3ccccc3)sc2=O)c1 | inactive | –
COc1ccc(-c2nc3n(n2)C(=O)CC(c2ccco2)S3)cc1 (stereo not drawn) | inconclusive: 25.1 µM [inhibitor, partial curve] | –
CCN1CCN(c2cc(C)c3cc(NC(=S)NCc4cccs4)ccc3n2)CC1 | inconclusive: 0.199 µM [inhibitor, full curve, poor fit] | –
CCOc1ccc(NC(=S)Nc2cccc3cnccc23)cc1 | inactive | –
O=C(O)c1cccc(-n2cccc2/C=C2/NC(=O)N(c3ccc(Cl)cc3)C2=O)c1 | active: 2 µM | –
Cc1c(NC(=O)COC(=O)/C=C/c2cccc(Cl)c2)c(=O)n(-c2ccccc2)n1C | inactive | –
O=C(CCCCn1c(=O)[nH]c2ccccc2c1=O)NCc1ccc2c(c1)OCO2 | inconclusive: 0.02 µM [inhibitor, full curve, poor fit] | –
COc1ccccc1-n1c(SCC(N)=O)nc2sc3c(c2c1=O)CCC3 | inconclusive: 44.7 µM [inhibitor, single point] | –
O=C(c1ccco1)C(O)c1ccco1 (stereo not drawn) | inconclusive: 21.2 µM [inhibitor, single point] | –
Cc1cc(C)c(NC(=S)N(CCCN2CCOCC2)Cc2cccnc2)c(C)c1 | inconclusive: 2 µM [inhibitor, partial curve] | –

5 entries from above, in markdown.

| SMILES | Potency | activity change, negative = inhibition |
| --- | --- | --- |
| CC(=O)Nc1ccc(N2C(=O)CC(c3ccccc3)CC2=O)cc1 | inconclusive: 44.7 µM [inhibitor, single point] | – |
| COc1cc2c(cc1OC)-c1cc(NCc3ccccn3)nc(=O)n1CC2 | inactive | – |
| CCN1CCN(c2cc(C)c3cc(NC(=S)NCc4cccs4)ccc3n2)CC1 | inconclusive: 0.199 µM [inhibitor, full curve, poor fit] | – |
| CCOc1ccc(NC(=S)Nc2cccc3cnccc23)cc1 | inactive | – |
| COc1ccccc1-n1c(SCC(N)=O)nc2sc3c(c2c1=O)CCC3 | inconclusive: 44.7 µM [inhibitor, single point] | – |

Following part:

SMILES | Potency | activity change, negative = inhibition
Cc1ccc(Nc2nc(-c3sc(N)nc3C)cs2)cc1 | inconclusive: 23.8 µM [inhibitor, single point] | –
CCN1CCN(CCNC(=O)c2ccc(/C=C3/Sc4ccccc4N(Cc4cccc(C)c4)C3=O)cc2)CC1 | inconclusive: 39.8 µM [inhibitor, single point] | –
O=C(CCN1C(=O)S/C(=C\c2ccc(Cl)cc2)C1=O)Nc1ccc(C(=O)O)cc1 | inconclusive: 23.8 µM [inhibitor, single point] | –
O=C(Cc1ccccc1Nc1c(Cl)cccc1Cl)OCO/N=[N+](\[O-])N1CCCC1 | inactive | –
CSc1ccccc1NC(=O)Nc1cccc(Cl)c1 | inconclusive: 0.158 µM [inhibitor, full curve, poor fit] | –
NC(=O)[C@@H]1CCCCNc2c(F)cc([N+](=O)[O-])cc2C(=O)N[C@@H](CCCN=C(N)N)C(=O)NCC(=O)N1 | inconclusive: 10 µM [inhibitor, single point] | –
C/C(=N/NC(=O)c1cc(-c2cccc([N+](=O)[O-])c2)n[nH]1)c1cccc(O)c1 | inactive | –
CCCCn1c(SCC(=O)c2ccc(OC)cc2OC)nc2cc(S(N)(=O)=O)ccc21 | inconclusive: 44.7 µM [inhibitor, single point] | –
Cc1cc(OCCCCCN2CCCC2)ccc1Cl | inconclusive: 8.91 µM [inhibitor, single point] | –
Cc1cc(C(=O)COC(=O)c2ccc(N)c([N+](=O)[O-])c2)c(C)n1-c1ccc2c(c1)OCO2 | inconclusive: 28.2 µM [inhibitor, single point] | –
Cc1ccc(-n2cccc2/C=C2/C(=N)N3C(=NC2=O)SN=C3S(C)(=O)=O)cc1 | inconclusive: 10 µM [inhibitor, partial curve] | –
COc1cccc(OC)c1C(=O)OCC(=O)N1CC(C)CC(C)C1 (stereo not drawn) | inactive | –
O=C(OC1CCOC1=O)c1ccc(Cl)c(S(=O)(=O)N2CCOCC2)c1 (stereo not drawn) | inconclusive: 11.9 µM [inhibitor, partial curve] | –
CC(C)(C)c1ccc(C(=O)N2CCN(c3nc4ccccc4o3)CC2)cc1 | inconclusive: 1.41 µM [inhibitor, full curve] | –
Cc1cc2cc(OCC(=O)O)ccc2n1C | inconclusive: 28.2 µM [inhibitor, partial curve, poor fit] | –
COc1ccc2nc(NC(=O)C3CCCN(S(=O)(=O)c4cccs4)C3)sc2c1 (stereo not drawn) | inconclusive: 22.4 µM [inhibitor, partial curve] | –
COC(=O)/C=C\c1cc(O)ccc1O | inconclusive: 35.5 µM [inhibitor, partial curve] | –
C[C@@H]1/C=C\CC(=O)OC[C@H](C)C(=O)N[C@@H](Cc2ccccc2)C(=O)OC1 | inconclusive: 2.82 µM [inhibitor, partial curve, poor fit] | –
CCN(CC)S(=O)(=O)c1ccc2nc(NC(=O)c3cccs3)sc2c1 | inconclusive: 28.2 µM [inhibitor, single point] | –
O=C(NC(=S)Nc1ccc(CN2CCCCC2)cc1)c1cccc(OCc2ccccc2)c1 | inactive | –
NC(=O)c1ccsc1NC(=O)c1ccc([N+](=O)[O-])o1 | inactive | –

SMILES | Potency | activity change, negative = inhibition
C[C@@H]1O[C@H]2C3=C(C(=O)[C@H]4O[C@@H]4[C@H]3O)[C@@H]1[C@@H]1[C@@H](C)OC=C3[C@H](O)[C@H]4O[C@@H]4/C(=N\OCc4ccccc4)[C@]312 | – | inactive: 14.2% [at 12.4 µM]
CO[C@@H]1COC(=O)[C@H]2CCCN2C(=O)[C@@H](C)COC(=O)CCC[C@H]1C | inconclusive: 7.08 µM [inhibitor, single point] | –
O=C(O)c1ccc(COc2ccc3c4c(c(=O)oc3c2)CCC4)o1 | inconclusive: 31.6 µM [inhibitor, partial curve] | –
CC1(C(=O)OCC(=O)Nc2ccc(C(N)=O)cc2)CC1(Cl)Cl (stereo not drawn) | inconclusive: 0.0089 µM [inhibitor, full curve] | –
COC(=O)[C@H](C)[C@H]1C[C@]1(C)[C@H](NC(=O)OCc1ccccc1)c1ccccc1 | inconclusive: 7.94 µM [inhibitor, single point] | –
COc1cc(S(=O)(=O)N2CCN(c3ccccn3)CC2)ccc1Br | inactive | –
CC(=O)C1=C(O)C(=O)N(c2cccnc2)C1c1cccc([N+](=O)[O-])c1 (stereo not drawn) | inconclusive: 3.16 µM [inhibitor, single point] | –
CCOc1ccc2nc(NC(=O)C3CCCN(S(=O)(=O)c4cccs4)C3)sc2c1 (stereo not drawn) | inconclusive: 31.6 µM [inhibitor, partial curve] | –
O=C(c1cccc([N+](=O)[O-])c1)N1CCOCC1 | inactive | –
Cc1ccccc1Cn1ccc(NC(=O)c2cc3ncc(Br)cn3n2)n1 | inconclusive: 35.5 µM [inhibitor, single point] | –
C/C(CCC(=O)OC[C@@H]1O[C@H](C#Cc2ccccc2)C=C[C@@H]1Oc1ccc(C)cc1)=N/O[C@@H](C)c1cn([C@H](CO)Cc2ccccc2)nn1 | inconclusive: 3.55 µM [inhibitor, single point] | –
FC(F)(F)c1nnc2c(Sc3ccc(Cl)cc3)nc3ccccc3n12 | inconclusive: 0.0045 µM [inhibitor, full curve, poor fit] | –
Nc1ccc(C(=O)Nc2ccc(Nc3ccncc3)cc2)cc1 | inconclusive: 8.91 µM [inhibitor, single point] | –
COc1ccc2cc(C(=O)C3CCCN(C(=O)/C=C/c4ccccn4)C3)ccc2c1 (stereo not drawn) | inactive | –
c1ccc(-n2ncc3cccnc32)cc1 | inconclusive: 4.47 µM [inhibitor, single point] | –
CCCN(C(=O)c1cc(C)ccc1C)c1c(N)n(Cc2ccccc2)c(=O)[nH]c1=O | inactive | –
CCOC(=O)C1C(=O)NCC2CCCC21 (stereo not drawn) | inactive | –
CC(=O)Nc1nc2cccc([N+](=O)[O-])c2s1 | inconclusive: 22.4 µM [inhibitor, partial curve, poor fit] | –
CC1(c2ccccc2)NC(=O)N(NC(=O)CSc2n[nH]c(N)n2)C1=O (stereo not drawn) | inconclusive: 39.8 µM [inhibitor, single point] | –
COc1ccc(N2CCN(CC(=O)NC(=O)NCc3ccco3)CC2)cc1 | inactive | –
CC1(c2ccc(OCC#N)cc2)C=C(c2ccc(OCC#N)cc2)n2nc(C(F)(F)F)nc2N1 (stereo not drawn) | inactive | –
